Data as given in PubChem BioAssay AID1224830 (NIAID, 2016).

Screen: 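Host factors that control LPS-induced TNF expression in human macrophages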 (primary screen)
Cells: human THP-1 monocytic leukaemia cells, TNF dual-luciferase reporter clone, PMA-differentiated to macrophage-like cells
Reagent: siRNA pool against human genes, 50 nM
Duration: LPS for 4 h, given about 3 days after siRNA transfection
Conditions: bacterial LPS (TLR4 ligand), 10 ng/ml
Detection: 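TNF firefly reporter luminescence divided by renilla, normalised to the plate median, then turned into a robust z-score for each replicate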
Scale: TNF reporter robust z-score: higher = stronger TNF reporter response to LPS
Active means: 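Each well counts as active if its z-score is over 2.8 or under -1.5; controls are left without a call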
This is a random part of about 18,000 deposited reagents. Over the whole deposit, about 2,900 (16%) got an active call. 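Calls are made per well; low scores hint the gene aids the LPS response, high scores that it dampens it.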 A number with no mark means an inactive call. Repeated entries: four replicate wells of each siRNA pool.

target gene	TNF reporter robust z-score
ENOX2	-0.31
ENOX2	1.22
ENOX2	0.26
ENOX2	0.13
MUC15	-1.41
MUC15	-1.47
MUC15	-1.1
MUC15	-0.16
SPARCL1	-1.42
SPARCL1	-0.31
SPARCL1	-0.71
SPARCL1	-0.51
DHFR2	1.26
DHFR2	1.61
DHFR2	0.49
DHFR2	0.89
CD209	2.93 (active)
CD209	4.18 (active)
CD209	3.06 (active)
CD209	3.56 (active)
CCDC110	0.84
CCDC110	1.15
CCDC110	0.65
CCDC110	0.82
ODAD1	-0.93
ODAD1	-1.04
ODAD1	4.28 (active)
ODAD1	-1.08
DTD2	-0.75
DTD2	-0.45
DTD2	0.29
DTD2	0.2
HK3	-0.28
HK3	0.31
HK3	0.48
HK3	0
ARL8A	0.03
ARL8A	2.38
ARL8A	1.82
ARL8A	2.01
KRT35	0.27
KRT35	0.76
KRT35	-1.22
KRT35	-0.03
STOX1	4.13 (active)
STOX1	3.76 (active)
STOX1	3.92 (active)
STOX1	-0.07
ARSH	1.95
ARSH	0.9
ARSH	1.69
ARSH	1.93
HTR2A	0.27
HTR2A	0.53
HTR2A	0.18
HTR2A	0.13
NIPBL	-1.1
NIPBL	-1.45
NIPBL	-1.13
NIPBL	-0.98
HOOK3	-0.18
HOOK3	1.25
HOOK3	-0.58
HOOK3	0.92
GPR107	-0.41
GPR107	-0.29
GPR107	-0.32
GPR107	-0.49
IL6R	-1.4
IL6R	-1.33
IL6R	-1.52 (active)
IL6R	-1.15
ROR1	-1.26
ROR1	0.6
ROR1	-0.68
ROR1	-0.51
TPM4	-0.64
TPM4	-0.67
TPM4	-0.52
TPM4	-0.42
BHMT2	-1.42
BHMT2	-1.02
BHMT2	-0.91
BHMT2	-1.67 (active)
ZNF672	-0.94
ZNF672	-1.08
ZNF672	-0.98
ZNF672	-0.65
CLPS	0.28
CLPS	-0.61
CLPS	-1.58 (active)
CLPS	-1.72 (active)
DEF8	0.73
DEF8	-0.02
DEF8	0.02
DEF8	-0.57
ABHD15	0.6
ABHD15	1.35
ABHD15	0.01
ABHD15	0.89
SIX4	-0.78
SIX4	-0.4
SIX4	-0.35
SIX4	-0.07
SLCO1B7	-1.54 (active)
SLCO1B7	-0.83
SLCO1B7	-1.47
SLCO1B7	-0.63
RNASE8	-0.34
RNASE8	-0.87
RNASE8	0.12
RNASE8	-0.9
